Data taken from patent publication US4148788 (dated 1979).
Ends that are not written are not given here. * marks the point of attachment. Cbz = O=C(OCc1ccccc1)*; Boc = CC(C)(C)OC(=O)*; OBn = c1ccc(CO*)cc1; Bn = c1ccc(C*)cc1

Assay: Boc solid-phase peptide synthesis; benzhydrylamine resin; dicyclohexylcarbodiimide (DCC); DCC/HOSu, DCC/HOBT and azide coupling in solutio
Conditions: whole synthesis

Row | Substance | crude mass [mg] | isolated mass [mg]
1 | Ac-SDAAVDTSSEITTKDLKEKKEVVEEAEN | 127 | 34

Same assay, conditions: whole synthesis, overall, based on the aspartic acid content of the resin, scale of the general procedure 2.5 g, 0.74 m mol

Row | Substance | isolated yield [%]
2 | Ac-SDAAVDTSSEITTKDLKEKKEVVEEAEN | 6.74

Assay: peptide synthesis
Conditions: coupling step

Row | Substance | step yield [%]
3 | Ac-S(Bn)D(OBn)AA-OH | 65.6
4 | Ac-S(Bn)D(OBn)AAVD(OBn)T(Bn)S(Bn)S(Bn)E(OBn)IT(Bn)T(Bn)K(Cbz)-OH | 85.37
5 | Ac-S(Bn)NAA-OBn | 56.9
6 | Ac-S(Bn)NAAVD(OBn)T(Bn)S(Bn)S(Bn)E(OBn)IT(Bn)T(Bn)K(Cbz)-OH | 42.0
7 | Boc-Asp(OBzl)-Leu-Lys(Z)-Glu(OBzl)-Lys(Z)-Lys(Z)-Glu(OBzl)-Val-Val-Glu(OBzl)-Gl(OBzl)-Ala-Glu(OBzl)-Asn-OBzl | 80.2
8 | Boc-D(OBn)T(Bn)S(Bn)S(Bn)E(OBn)-OH | 82.7
9 | Boc-E(OBn)E(OBn)AE(OBn)N-OBn | 59.8
10 | Boc-E(OBn)K(Cbz)K(Cbz)E(OBn)VVE(OBn)E(OBn)AE(OBn)N-OBn | 68.3
11 | Boc-E(OBn)VVE(OBn)E(OBn)AE(OBn)N-OBn | 58.7
12 | Boc-IT(Bn)T(Bn)K(Cbz)-OH | 41.2
13 | Boc-T(Bn)S(Bn)S(Bn)E(OBn)-OH | 78.1
14 | Boc-VD(OBn)T(Bn)S(Bn)S(Bn)E(OBn)-OH | 51.4
15 | Boc-VD(OBn)T(Bn)S(Bn)S(Bn)E(OBn)IT(Bn)T(Bn)K(Cbz)-OH | 81.7

Same assay, conditions: late stage modification step

Row | Substance | step yield [%]
16 | Ac-Ser(Bzl)-Asn-Ala-Ala-HNNH2 | 89.6
17 | Ac-Ser(Bzl)-Asp(OBzl)-Ala-Ala-HNNH2 | 61.0
18 | Ac-Ser-Asn-Ala-Ala-OH | 72.2
19 | Ac-Ser-Asp-Ala-Ala-OH | 86.3
20 | Boc-Ser(Bzl)-Asp(OBzl)-Ala-Ala-HNNH2 | 23.1
21 | Boc-Val-Asp(OBzl)-Thr(Bzl)-Ser(Bzl)-Ser(Bzl)-Glu(OBzl)-HNNH2 | 66.4
22 | DLKEKKEVVEEAEN | 22
23 | EKKEVVEEAEN | 42.1
24 | EVVEEAEN | 48.1
25 | HCl.H-Glu(OBzl)-Glu(OBzl)-Ala-Glu(OBzl)-Asn-OBzl | 75.1
